The record followed here is article doi:10.1101/2024.02.17.580811.

Amino acid sequences for entries named in this document (tags omitted).
UniProt P24782: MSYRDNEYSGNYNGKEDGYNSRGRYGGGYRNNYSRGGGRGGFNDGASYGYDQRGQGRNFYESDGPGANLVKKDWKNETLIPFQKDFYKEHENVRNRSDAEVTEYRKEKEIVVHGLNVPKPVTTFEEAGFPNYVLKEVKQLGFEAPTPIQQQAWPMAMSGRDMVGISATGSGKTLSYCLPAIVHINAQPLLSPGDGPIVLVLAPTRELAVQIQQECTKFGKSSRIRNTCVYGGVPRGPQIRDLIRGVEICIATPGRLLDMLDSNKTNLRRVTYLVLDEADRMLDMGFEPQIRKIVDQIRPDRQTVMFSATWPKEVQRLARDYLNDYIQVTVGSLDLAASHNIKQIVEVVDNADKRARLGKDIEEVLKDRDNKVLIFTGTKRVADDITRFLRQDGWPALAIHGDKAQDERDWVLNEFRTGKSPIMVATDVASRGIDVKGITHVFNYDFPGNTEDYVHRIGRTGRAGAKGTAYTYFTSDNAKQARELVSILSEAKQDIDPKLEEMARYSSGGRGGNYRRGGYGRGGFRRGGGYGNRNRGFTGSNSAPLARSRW

No constants are given. Whether binding was seen depends on the method and setting. Binding seen in cells or lysates may run through a third protein. These calls come from enrichment with a bait or labelling near it, and not all partners need be listed. A no says only that the protein was not detected with the bait.

B1: Rsc7 (protein, UniProt O94522 1-390)
chain: MDSTAGSDASTPTNHTVSSKKRRGRPPKGSYAAYGSSDDDDEEYSGRTRRRNRNTRPRVSAPSSSSTVVPKDLYSHRATLEDDELNFGVVDPEGEKKVNELGYLNGGREYRCRTFTCLGRGNRLYMLSTEPARAMGYRDSYLLFLKHRSLHKIIVDDSEKWDLIERNIIPHSYKGRAVGIVAARSIFREFGARIIVGGRRIVDDYWEGEFRARGFVEGELADPDDKLPPPGMPYNRNQYVAWHGASAVYHPQPSLEAQLPAAARKRKKEPPKDATWLFQHAKATAAYNNDITKYLVQKQDIGYFEPHTNLLHVPLNTQPTKTHWIQAKTGTECPAPKLDILVALNSDVAPQVSIANIPPSVYASCPLHVQEAIRKRQEQEIRSIRLNSMY
B2: Mlo3 (protein, UniProt Q09330 1-199)
chain: MSMELDQSLDAIIASKPKGGIRKRRARSNKPKPTKNAKPAVNTASALKSVISEESKIIVSNLPTDVTEAQVKELFVKSIGPCKRVSLAYGPNGRSKGIATIIFSRPGDATRAYEQYEGRLVDGTRKMKVEIILDPSRQLNSLAARVSPASNASATASKNGAKSSKRKTTRRRRTPNRPKKSAEELDKEMDDYFGSNEKE
B3: mRNA export receptor Mex67 (protein, UniProt Q9Y8G3 1-596)
chain: MLRRKRERRNAVKENEMVIDTPLEKRRTPGKPRATREPPISVVITGHSKGSEDDLISFVWRKVKVRLMNISYSPASVTAVVKSQDFSRLNGLNGAAFAGDHLAIRRVDGASNVTQDYRKAKTKRSFRSVSAPSLSALATQAQRNVSKTLPQSTNETIEKLRQFLQTRYQPATKFLDLGNLQQDPLLKQMGILAEASTKSKMFPALMKVASLNFPDVISVSLSDNNLQSVTAVTTLAQTWPKLLNLSLANNRITSLSDLDPWSPKTKLPELQELVLVGNPIVTTFANRAMDYQREMVSRFPKLRLLDGNSINSEIIASQSTVPFPVYQSFFDKVETEQIVNSFLAAFFKGWDENRSALVNQLYSPNATFSISLNASNVRTNFSQKTDTKKWGAYKMKSRNLLYSQSQKESKSRLFNGHEEISNAVKSLPATAHDLSDRSQWVFDGWNLVLPSVGAAIKIVVHGQFEEPQNKRLLRSFDRTLLILPGGSTGILIINDLLVIRSFAGSLGWLPGQSSVRTSNNAMSASASKPSDIVQPRPEQAMLDTRQQIVLKIKAETGLNDYYAHMCCEQNNWDYNSALASFLELKSRNVIPAEAFS
B4: type I protein arginine N-methyltransferase (PRMT1) Rmt1 (enzyme, UniProt Q9URX7 1-340)
chain: MPGNTKKSADSGLTAKDYYFDSYSHWGIHEEMLKDDVRTLSYRDAIMQNPHLFRDKIVLDVGCGTGILSMFCARAGAKHVYGVDMSEIIHKAVQIVEVNKLSDRITLIQGKMEEIQLPVEKVDIIVSEWMGYFLLYESMLDTVLVARDRYLAPDGLLFPDRAQIQLAAIEDADYKSEKIGFWDDVYGFDFSPIKKDVWKEPLVDTVDRIAVNTNSCVILDLDLKTVKKEDLAFSSPFEITATRNDFVHAFLAWFDIEFSACHKPIKFSTGPFSRYTHWKQTVFYTHKDLTVKAGEYIRGTITCKPAEGNHRELDIDISYTFNPREPNREPVSEDLSYRMC
B5: Mlo1 (homologue of human SARNP/CIP29) (protein, UniProt O74871 1-245)
chain: MSDYKSLKVAELREKLAEKGLSTAGNKAELVSRLTAATESNDENTSNNNATDLGDLAPPEDDIDWGDMENDTISTDVNKPAEPESKETSAPAAAVEIEKENESIISKETSQAPETSTGAEEHQETTEESKQSVSNEVSSPDVAKEQEKLIQRAKRFGIPVDDEQIKKAARAARFGIQQPLASSNNKNHNQSKNPQNRSNSRSKQRNKNAPPKSAPSKRKSNILDDPIEAEKARKRAERFGVAAKN
B6: Top2 (enzyme, UniProt P08096 1-1485)
chain: MSIDADFSDYEDEASGDENVLPNTTTKRKASTTSSKSRAKKASTPDLRQTSLTSMTASEQIPLVTNNGNGNSNVSTQYQRLTPREHVLRRPDTYIGSIEPTTSEMWVFDSEKNKLDYKAVTYVPGLYKIFDEIIVNAADNKVRDPNMNTLKVTLDPEANVISIYNNGKGIPIEIHDKEKIYIPELIFGNLLTSSNYDDNQKKVTGGRNGYGAKLCNIFSTEFVVETADKERMKKYKQTWYDNMSRKSEPVITSLKKPDEYTKITFKPDLAKFGMDKIDDDMVSIIKRRIYDMAGTVRETKVYLNNERISISGFKKYVEMYLASDTKPDEEPPRVIYEHVNDRWDVAFAVSDGQFKQVSFVNNISTIRGGTHVNYVANKIVDAIDEVVKKENKKAPVKAFQIKNYVQVFVNCQIENPSFDSQTKETLTTKVSAFGSQCTLSDKFLKAIKKSSVVEEVLKFATAKADQQLSKGDGGLRSRITGLTKLEDANKAGTKESHKCVLILTEGDSAKSLAVSGLSVVGRDYYGVFPLRGKLLNVREASHSQILNNKEIQAIKKIMGFTHKKTYTDVKGLRYGHLMIMTDQDHDGSHIKGLIINYLESSYPSLLQIPGFLIQFITPIIKCTRGNQVQAFYTLPEYEYWKEANNNGRGWKIKYYKGLGTSDHDDMKSYFSDLDRHMKYFHAMQEKDAELIEMAFAKKKADVRKEWLRTYRPGIYMDYTQPQIPIDDFINRELIQFSMADNIRSIPSVVDGLKPGQRKVVYYCFKRNLVHETKVSRLAGYVASETAYHHGEVSMEQTIVNLAQNFVGSNNINLLMPNGQFGTRSEGGKNASASRYLNTALSPLARVLFNSNDDQLLNYQNDEGQWIEPEYYVPILPMVLVNGAEGIGTGWSTFIPNYNPKDITANLRHMLNGEPLEIMTPWYRGFRGSITKVAPDRYKISGIINQIGENKVEITELPIRFWTQDMKEYLEAGLVGTEKIRKFIVDYESHHGEGNVHFNVTLTEAGMKEALNESLEVKFKLSRTQATSNMIAFDASGRIKKYDSVEDILTEFYEVRLRTYQRRKEHMVNELEKRFDRFSNQARFIHMIIEGELVVSKKKKKDLIVELKEKKFQPISKPKKGHLVDLEVENALAEEEQSGDVSQDEDSDAYNYLLSMPLWSLTYERYVELLKKKDEVMAELDALIKKTPKELWLHDLDAFEHAWNKVMDDIQREMLEEEQSSRDFVNRTKKKPRGKSTGTRKPRAIAGSSSSTAVKKEASSESKPSTTNRKQQTLLEFAASKEPEKSSDINIVKTEDNSHGLSVEENRISKSPGLDSSDSGKSRKRSQSVDSEDAGSKKPVKKIAASASGRGRKTNKPVATTIFSSDDEDDLLPSSLKPSTITSTKASAKNKGKKASSVKKQSPEDDDDDFIIPGSSSTPKASSTNAEPPEDSDSPIRKRPTRRAAATVKTPIYVDPSFDSMDEPSMQDDSFIVDNDEDVDDYDESD
B7: Rsc9 (protein, UniProt Q9P7W8 1-780)
chain: MSQVIQGAVEEPVYSNKSLTNENDSFLSLIESFSQERGVPIDINPKIGRKPILLYELYKKVIKRGGYDAVSATEDGWTNIAEEFNQSDPARSAGILQNVYFKYLISWEIHDHWHLLLPPPSTLELSENRQNVLERVKVFNSCSPPKPTNPITIIDNDKTHSFKKFYKSLVKEDEENGIEKKINEAMNSSASQPLPNSTNFASTTFPSVPFHPLPVDSGLQKYIDRNSNLTPPALGAGVPGPPLLVRVALALKSQQDKEVDWAIGHLIKISFERHQEFKLERLPSLAECLVYSLGFQVTKAKQVSDLTDISLCMDRAIGIALVLRNSVLSVENAKHVAQTKLVISVLEASIRCAKTFNNLEFLHYCLDISEMISSYLHVEDEKNVFYLALCEFLNSSDYSILIATLRTLARLALNDRNNRLLQDLKSNVIANIIALVETDNEEIVAAALDFLYQYTTYRTNTSNLLASQEAWMLVDQLIRLMMYQAQERFMTVTIENSESNPAVKHEATSSISLPMEELQQLVAMREPERSVKWMRCCFEPSSDDYVLQTDIWQLYCSDMERAQGPNVMGISPADFIKVSSHAFYNARAMTVSTPQLPVEYVINGIKRRKFPTSVNGMRYQPCRWCLDSGKECGELLLGTPLLHSHLQEMHIFPQILETGKCRWSDCKYEIQRLTPASELSHYQLLSHIVTHLHDDSLETLVEGRKLSPSREFRIPLLLTAVDDQGDATGIALTATLVLRNLVRSKQGKMLFSAIESRVLEVSSLNPAVAPYVSEMLLGQI
B8: Rpb8 (protein, UniProt Q92399 1-125)
chain: MSESVLLDEIFTVTSVDKQKYQRVSRITAVSGQNDMNLTLDINSQIYPLEKDATFSLQITSNLNSPDLKEAADYIMYGKVYRVEEAKDEKVSVYVSFGGLLMAIEGSHRKLYRLSLDHVYLLLRR
B9: SR protein kinase Dsk1 (enzyme, UniProt P36616 1-544)
chain: MGSDGSSLSPKVSQPGHTEIVDHVSEKVITNGKNVNKKVNAEVDGKSMVEKVKTHEENAEDYHYGGYHPVYIGEEFHHRRYVVERKLGWGHFSTVWLAYDRAAKRRVALKVVRSAEHYRETSIDEIRILQKIREGDEKHLGKKHIISLLDYFVHRGPNGAHVCMVFEVLGENLLSLIQSYGHRGVPVGIVKQIAYQLLIALDYLHRECGIIHTDLKPENVLICIDQDALQHIEAPATTSSPTSNTSSSKTRNNTGYTAKAPIIKRGQSVDNSAQERKTFAKNPTKNSKPAGQVIPSSPFTSTLSRFPSLEGAVSEISLRDSQKHNSHPNSPFSSGDNSLILDGVNGSQEPVPKITVKIADLGNACWTRKHFTNDVQTRQYRSPEVILGCRWGASADCWSFACIIFELLTGDYLFDPRNGNSYSKEDDHIAQIIELLVNYPKQMALSGKHSRDLFNRRGELRNIHKLKFWPLKDVLEQKYHFSAELAQQISDFLSPMLCFDPAKRTNAGYMSNSPWLREVADPTFKIETTGATGEDVPGWATEIR

The first assay concerns the target Dbp2-HTP (S. pombe) (UniProt P24782). The experiment in a line: affinity purification with mass spectrometry.
With B1, the binding result was “binds”.

With B2, the binding result was “binds”.

B3: the binding entry is “binds”.

For the molecule B4, the binding result is “binds”.

B5: the binding entry was “binds”.

On to B6, for which the binding result is listed as “no binding”.

Regarding B7, the binding entry was “binds”.

The next assay has as its target T1, Srp2-HTP (S. pombe) (UniProt P78814).
T1 sequence: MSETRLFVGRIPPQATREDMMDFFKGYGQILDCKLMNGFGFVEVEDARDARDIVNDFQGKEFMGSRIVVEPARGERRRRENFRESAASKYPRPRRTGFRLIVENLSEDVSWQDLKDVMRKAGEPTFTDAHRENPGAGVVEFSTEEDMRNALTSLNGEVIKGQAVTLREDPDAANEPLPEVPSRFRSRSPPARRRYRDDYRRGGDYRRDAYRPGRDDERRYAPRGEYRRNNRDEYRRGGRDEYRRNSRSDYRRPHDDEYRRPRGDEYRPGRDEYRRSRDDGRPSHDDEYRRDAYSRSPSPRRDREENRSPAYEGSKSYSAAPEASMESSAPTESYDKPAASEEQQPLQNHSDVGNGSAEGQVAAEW
Kind of assay: affinity purification with mass spectrometry.
On to B8, for which the binding result is “binds”.

Consider B9, for which the binding entry was “binds”.

On to B6, for which the binding entry is reported as “no binding”.
